# From PubChem BioAssay AID1347423 (Functional Genomics Laboratory (NCATS/FGL), 2020)
# Hit rate of the full screen: of about 52,000 sequences, about 210 (0.4%) were called active.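 How the source made its calls: active means gene whose silencing raises cell survival under the drug, median off-target-corrected z-score across its silencing RNAs 2 or more; inactive means the rest.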 Some of the results follow.
# Assay: Resistance to Poly (ADP-Ribose) Polymerase inhibitor: Gene Identification via Genome-wide siRNA Screen
# Settings: mouse BRCA2 R2336H ES cells, olaparib, CellTiter-Glo viability; active compounds read high
# How it was run: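 Genome-wide siRNA screen (3 siRNAs/gene, 20 nM) in mouse ES cells carrying hypomorphic BRCA2 R2336H; olaparib 500 nM added 48 h post-transfection, CellTiter-Glo viability 72 h later. Normalized to plate-median negative control; MAD z-scores, gene median, seed-adjusted.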
row,Sequence,z-score
1,GGGUGGUCAGUGGUCAAAATT against Chodl,inactive: -0.36
2,GGAUGAACCUACACCCUAATT against 2610209N15Rik,inactive: -0.567
3,GCAGAUCAGAAGAAAUUUGTT against Jmy,inactive: 0.571
4,CGUGAUUGUGGACCAUUCUTT against 2310075G12Rik,inactive: -0.492
5,GGUGGUUGAAAAGAAAACUTT against Hspa5,inactive: -0.998
6,GGAUCUGUAUUGUAAACAATT against 5330414D10Rik,inactive: 0.846
7,GCGAAUUGAAGGCUCGGGATT against Dnm2,inactive: -0.0964
8,GCUCAGAAAUCGGCUCAGATT against Ssbp2,inactive: -0.7
9,GGAAAGAGAGUCUUAAAUGTT against Ncb5or,inactive: -1.07
10,CCGUGUCCAACAUUCUCUCTT against Tas1r2,inactive: 0.201
11,GCUAUCACCACAACUACCATT against Cyp46a1,inactive: -1.11
12,GGAGCCACCACAACUAUAATT against F2rl2,inactive: 0.157
13,GGAUGCAUUCAUGAGUAUUTT against Ifng,inactive: -1.32
14,GGUGAACAUGCGCAUCAAATT against Ugt1a5,inactive: 1.05
15,GGGAUUUAACAACAUGUAATT against Slc20a1,active: 2.29
16,CGAUUUAUUCUGCUAUUGGTT against Pla2g7,inactive: 1.07
17,GCGUAUAUAUACUUCACUGTT against Stxbp3,inactive: -1.84
18,GGUAAUGGAAAUGAACAAATT against Zfp353,inactive: 0.457
19,CGUCUCCUGAACUUAGAAUTT against 1110008F13Rik,inactive: -1.09
20,GGAAUUCCCAAGAGAAGGATT against Gyk,inactive: -2.02
21,CGCAACCUGAAAAUGGCAUTT against BC022687,inactive: 0.361
22,CCAAAUGAGGCUACCACAATT against Socs7,inactive: -1.31
23,GGAGAAGCUGCCUUUCAUGTT against BC030476,inactive: 0.63
24,GCAGUUGGUUCAAGUCAACTT against Psat1,inactive: 0.841
25,GAUUCUUACUUUGGUCUACTT against Olfr9,inactive: -0.866
26,GGCAAUCGAGAUUAUGCCATT against Itgav,inactive: 0.26
27,GGCCGUGCCAUUCAAAGACTT against Aoah,inactive: 0.167

# Reformatted as tab-separated lines: part of the list above.
row	Sequence	z-score
9	GGAAAGAGAGUCUUAAAUGTT against Ncb5or	inactive: -1.07
10	CCGUGUCCAACAUUCUCUCTT against Tas1r2	inactive: 0.201
11	GCUAUCACCACAACUACCATT against Cyp46a1	inactive: -1.11
12	GGAGCCACCACAACUAUAATT against F2rl2	inactive: 0.157

# The results go on.

row,Sequence,z-score
1,CCGAGAAACGAAUAAGUCATT against Rbmx,inactive: 0.138
2,GGAUAUACUGUGGAGGCUUTT against Gzmd,inactive: -1.17
3,GGAACUCAGUAACACCCAGTT against Fcamr,inactive: 0.348
4,GGUAACGAUGAGGUCAUCGTT against Atp6ap1,inactive: -0.733
5,CCUGCUAAAGGCUUCUCAATT against LOC217066,inactive: -0.348
6,CCAUUAUUGGCCCAUGCUCTT against 5430437P03Rik,inactive: 0.809
7,GCUACUAAACAGGGUGUGATT against Gpsm3,inactive: -1.1
8,GGAGUACGAGCAAAUGGUGTT against Nfkbia,inactive: 0.631
9,GGUGUGUUUUAUGUGUCCCTT against Gm672,inactive: -0.591
10,CCUAUUACUCUCAAGGUUCTT against BC019943,inactive: 0.828
11,CCUAUAAUGCUGAAAUGGCTT against Olfr702,inactive: -0.343
12,GGAAAAAUCAUCCUGGCUCTT against 1110002B05Rik,inactive: -0.199
13,CCACUUUCCCAUUCAGGAATT against Gpr84,inactive: 0.893
14,GGUUUAAGCACUACAGUGATT against 2310022M17Rik,inactive: 0.555
15,CCUUUCCUUUAUUGAUCUCTT against Olfr888,inactive: -0.0698
16,GCUAAACUCCACCAAGACATT against Grid2ip,inactive: 1.8
17,GCGGGAAUGGAACGAAAACTT against Otx1,inactive: 0.349
18,GGAGGAAAAGUAGGUUUGCTT against Peli1,inactive: 0.222
19,GGUACUAUUCAGUCCUUUATT against Gm1012,inactive: -0.491
20,GCUCCUGUUUAAGCAUAUGTT against A930012M17,inactive: 0.717
21,CGUACUCAAAGGCUAACCGTT against Lamc1,inactive: -0.386
22,GUGGUUUCGGUGCUUGGGUTT against Svs3,inactive: -1.9
23,GCUCAUCGGUCAGAUCAAATT against Syt3,inactive: 0.474
24,GGCUAAGGACUUGCCAACUTT against Pip5k2b,inactive: -0.271
25,CGGAAAUAAGUUUCCCUUGTT against 2310039H08Rik,inactive: -0.503
26,GCUAAAUUUGGGCACUAAUTT against 1810036I24Rik,inactive: 1.03
27,GGAGAAGACUUGUAACAAATT against 4933428I03Rik,inactive: -1.95

row,Sequence,z-score
1,GCUUGUGAUCGACUCUGCATT against Centb5,inactive: 0.0161
2,GGACUAUGUCAUCAAGAUUTT against Napsa,inactive: 1.78
3,GGAAAGGAUCCAGACUUUATT against Crisp2,inactive: 0.556
4,CGUGUCCAAAGGUGAAUCATT against Psmd1,inactive: -3.5
5,GGAGAGAAUACUAUUUCAATT against Pknox1,inactive: 0.884
6,CGGUGACGAACAACUUGAATT against Tpm1,inactive: 0.0484
7,GGAAUAAAAGGAGAGAAAGTT against Slc14a2,inactive: -0.0891
8,GGAAACAGGAUUAAGCUAGTT against Ankrd27,inactive: 0.527
9,GGAGAUUAAAGCUUCAAAATT against Ldhd,inactive: 0.76
10,GCACUAGACGAGAUGACAATT against Eif4g2,inactive: -0.835
11,GGUAGUAGUGAAACCCAGGTT against Irs4,inactive: -1.25
12,UGGGUAUUACCAUAAAUGUTT against Tas2r114,inactive: 0.824
13,GGAAUUCUGCACCUCCCAATT against A730020M07Rik,inactive: 0.236
14,GCUAUGUCAUAUCAUCAAGTT against Gpr64,inactive: 1.17
15,GGCAUGGUGGUCUUUCCUUTT against Sephs1,inactive: 1.54
16,GGAUUCUCAAUAAAGACUUTT against Apoa1bp,inactive: 0.561
17,GGACCUAAGCAGAAAACUGTT against Mrg2,inactive: 0.392
18,GGAGCAUAGAAAAGACAAUTT against Adrbk1,inactive: -0.902
19,GCCCAACUUUCAACAAGACTT against Ptgds,inactive: -0.0597
20,GGUUCGUAAAAUUAUUAGGTT against Vcl,inactive: -0.00255
21,UUUAGCUUUCUUCUGGCUCTT against Olfr438,inactive: 0.413
22,GGGCGAAAACCAUUCAAAUTT against Zfp112,inactive: 0.534
23,CCGUAUUAGAAAGUAGAUATT against Arpp19,inactive: 0.46
24,CGGACAAGAUAGUAUUCUUTT against Atp2b1,inactive: 0.843
25,GGAACUGGUGUCAGUGUUGTT against Psmd14,inactive: 0.55
26,CCACUACGUUGUUGAUCACTT against Pcdhga11,inactive: -0.846
27,GGCGCAUCAUUAUUACCUCTT against BC042698,inactive: 0.445

row,Sequence,z-score
1,GGUUCUUUGGCUCUGUAUGTT against Atp5c1,inactive: -2.21
2,GCUUACCUUACAUUGUAAGTT against Eda2r,inactive: 1.74
3,CCGCUUGGUUACCAGUGACTT against Nudc,inactive: -2.71
4,GGACAAAGGGAUUGCCAUUTT against Il1f9,inactive: -0.951
5,GGUCAACAAUCACUUUUUCTT against Pip5k2c,inactive: -0.285
6,GGCAAAGGCCUAUGAACUGTT against Phka1,inactive: 2.8
7,GCAAGAAACCAACCAAUCCTT against 6-Sep,inactive: -1.11
8,GGAACAAAGAUGUCAAGAUTT against Olfr904,inactive: -0.238
9,CGACCAUUAUACAACAGAUTT against F630111L10Rik,inactive: 0.0313
10,GACCAUCAGUGAUUGAGGATT against Speer4b,inactive: 0.195
11,GGAAACAGUCAUGCAGCAATT against Plvap,inactive: 2.68
12,GGGCCAAUGAUGGACUUCCTT against Syp,inactive: 0.221
13,GGACUUACUGACAAGAAACTT against Pcdhgb8,inactive: -0.429
14,GGUGAAGACUUCCAGAAGGTT against Reg3a,inactive: -0.335
15,GCCAGUGGUAUCUGGAAGUTT against Brca2,inactive: 0.761
16,GGAGACGGAGCUGUUAGAUTT against Plcb1,inactive: 0.513
17,GCCGCUCUGUACUUUGUCUTT against BC014699,inactive: 0.268
18,CCUGAUGAUUCAACAAAAGTT against Pum2,inactive: 1.09
19,CCUACAUCCUCCAUAGAAUTT against LOC434228,inactive: 1.33
20,GGGUAUAGGGAUGGUGAAUTT against Ppil1,inactive: 0.65
21,GCCAAUUGGACCUUAGAAATT against Nup107,inactive: -1.9
22,CGAGAUGGGAGAUUGAAAUTT against Ms4a8a,inactive: -0.41
23,GGUGAAGAAGGUGUUCCAUTT against Pvalb,inactive: -1.34
24,GGACCCUGACUCAUUGGCATT against 4933400K24Rik,inactive: -0.252

# Some of the entries so far, tab-delimited:
row	Sequence	z-score
16	GGAGACGGAGCUGUUAGAUTT against Plcb1	inactive: 0.513
17	GCCGCUCUGUACUUUGUCUTT against BC014699	inactive: 0.268
18	CCUGAUGAUUCAACAAAAGTT against Pum2	inactive: 1.09
19	CCUACAUCCUCCAUAGAAUTT against LOC434228	inactive: 1.33
